Source: the supplement of paper PMC3334620
Whole data set: some 33,000 sequences, median “E-score (-0.5 to 0.5)” near -0.0014, cut for the highest 2% near 0.25. Some of the results follow.

Molecular target: T1, Cad1 (UniProt P24813)
T1 sequence: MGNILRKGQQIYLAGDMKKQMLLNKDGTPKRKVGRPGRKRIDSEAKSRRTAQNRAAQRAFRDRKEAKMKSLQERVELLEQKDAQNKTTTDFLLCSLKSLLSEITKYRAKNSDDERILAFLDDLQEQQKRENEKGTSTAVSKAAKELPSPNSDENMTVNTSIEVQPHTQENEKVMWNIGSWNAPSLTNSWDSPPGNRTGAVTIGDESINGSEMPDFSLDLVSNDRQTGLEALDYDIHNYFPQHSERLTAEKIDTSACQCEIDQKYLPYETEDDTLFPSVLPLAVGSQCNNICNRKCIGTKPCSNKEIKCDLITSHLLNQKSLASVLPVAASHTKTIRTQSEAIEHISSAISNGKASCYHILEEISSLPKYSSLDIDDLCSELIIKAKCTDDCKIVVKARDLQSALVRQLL
Assay: PBM E-score (8-mer binding enrichment) (E-score (-0.5 to 0.5)); higher = stronger / more preferred TF binding
Details: protein concentration: 100 nM; construct: GST-full length
In short: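 E-scores (a modified Wilcoxon-Mann-Whitney statistic) were assigned by the Universal PBM Analysis Suite to every ungapped eight-base word pooled with its reverse complement. The input came from universal all-10-mer Agilent arrays made double-stranded by primer extension and probed with GST-tagged yeast transcription factors at about 100-200 nM. Fluorescent anti-GST detected bound protein, and masliner normalised the scans.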

Sequence | PBM E-score
CGAAACCA | 0.11
CATCAATA | 0.197
ACGCCGAA | -0.0244
CGAACCCG | -0.071
CAATAGGA | -0.021
ACAAACGC | -0.0375
CTATCCGC | 0.207
GACCCAGC | -0.263
CTTATTGA | 0.0117
CAGGTCGG | -0.0877
ACCACTTA | -0.00031
GCAGGAGA | -0.0235
CAGCCATC | -0.00262
AGCGGGCG | -0.11
ATACTACG | 0.0717
AGATTCTA | -0.0987
ACCCGTAT | 0.0843
GCGTCTAC | 0.0366
AGGCTTAG | 0.0871
GCAAGGAA | -0.0012
AATTAAAC | 0.13
CAAAGTAC | 0.0445
CACGAATA | 0.128
TATACGCA | 0.11
CCACTCGG | -0.0924

Sequence | PBM E-score
AGTCGCGC | 0.212
CCGATGAC | 0.117
CGTCCTGC | -0.14
CGATGACC | -0.00705
ACAGCGAT | -0.0854
ATCTTTAG | 0.0251
CATGTTGC | 0.007
CCAGTGCG | -0.288
ACCAATTC | 0.226
CGGCTCCA | -0.0781
ATTCCGCC | 0.108
CAAACAGA | 0.117
ATCTAGGA | -0.105
ACAAGCGT | 0.0246
AATAAGGT | 0.045
ATGATAAG | 0.197
CAGCCGAA | 0.00688
CACGGGAG | -0.109
ACGGGCCT | -0.153
CGCCGGTA | 0.0298
GATCCGGC | 0.131
AAACTATT | 0.0627
GTTAAGTA | 0.101
CTCATATA | 0.141
CGCATCCC | -0.371

Sequence | PBM E-score
AATATCGA | 0.242
AGCGCAGA | 0.00651
CGTACGTA | -0.0286
CGCGAAAC | 0.168
ATGGTGAA | -0.0239
AAAACTAA | 0.247
GCATTCCA | -0.134
ATGAATCC | 0.16
CTGATGCA | 0.103
AATATTCT | 0.126
CAGAACTG | 0.164
AGCGGTAT | 0.124
CGGACCCA | -0.00824
CAGCCAAC | 0.0207
CTATATAA | 0.0617
AAGGCAGG | -0.193
AACGTGAG | -0.0528
TATCTGGA | -0.125
ACTTCTAC | -0.052
CGCCGACA | -0.035
CACGCCGC | -0.207
AGCGTGTC | -0.0741
ACTGTACA | -0.103
TAAAAAAA | 0.061
GGTTGAGA | -0.224

Reprinted from the results shown for reference:
Sequence | PBM E-score
CGGACCCA | -0.00824
CAGCCAAC | 0.0207
CTATATAA | 0.0617
AAGGCAGG | -0.193

Carrying on.

Sequence | PBM E-score
ATTCCTAG | 0.0442
ACGGCTTG | -0.129
CGGTGTGC | -0.179
CCACGGTC | -0.3
ACGACCAT | -0.196
CCAACCCA | -0.235
ATTCAGGC | 0.0778
ACACGGTG | -0.0772
CGGATCGA | 0.149
AAAGGCGA | -0.215
GGCGCTAC | -0.214
AGAGCGTC | 0.0213
GGCAGCTA | 0.119
GTGCATCA | 0.128
AGGTCAAT | -0.0613
GGGCGGTA | -0.222
AGGCGGAA | 0.0472
TCGCACAA | 0.111
AGGCAACA | -0.18
ATACATTG | 0.108
ATGTAGGC | -0.118
CACCTTCG | -0.115
GGGTATAC | 0.0548
CGAATTAG | 0.114
GCGGACTA | 0.0278

Sequence | PBM E-score
ATAAGTGG | 0.14
AACGTGCG | 0.0339
CTACTTCA | -0.0482
CGCACCAC | 0.079
TCGCTGAA | 0.0787
ACACCAAT | 0.148
CTATATGA | 0.188
TCCTGACA | 0.125
ACCAGGAT | 0.148
CCTCCGGC | -0.0803
GCAGATCA | 0.091
CCTCTACG | -0.234
TAATCAAA | 0.219
GCAATTAC | 0.00875
AAACCTAT | 0.0415
CAATAAGG | -0.212
ACTGACCA | -0.105
ATGGCGGC | -0.0946
ATTATAGG | 0.0152
AAACCAAC | -0.0489
CAAGTGCA | -0.0689
ATCGTATA | 0.0956
AATTACAC | 0.148
GTGTGAAC | -0.0104
AACCCTGT | -0.0735

Sequence | PBM E-score
AAGGTAAC | 0.0649
ACTTGCAA | 0.223
TGGGCACA | 0.0246
ATGGGCAA | 0.0197
ATTGTTTG | 0.118
TCAGTTCA | 0.0157
GGGAGAAC | -0.199
TAGATCGA | 0.0219
AGCCCTTG | -0.183
GATTGCTA | 0.022
GATCGGCA | -0.0171
AAAAAAGC | 0.145
CACTATCC | 0.00309
CCGATGGC | -0.118
GCTGAATA | 0.0425
AATGGTCA | 0.187
TCGACAGA | -0.0541
CGCGACCC | 0.0122
CAATTCTG | -0.14
TGCTAAAA | -0.0559
CGGATGTC | 0.0171
ACGGAAGT | -0.0254
AGAGGGCT | -0.242
AACGTTCT | 0.165
ATGCCATA | 0.0121

Sequence | PBM E-score
CCGTCACC | -0.201
ACATCAGG | -0.0345
ATTTAGGG | 0.0495
AGAATAGA | -0.0594
ACCAGCAT | 0.101
ACGCATTA | 0.145
AGGATACT | -0.141
ACTAAGGG | 0.00137
AGAGTACC | -0.159
AAGCCGCC | -0.0596
AGCAGTTA | 0.0263
AATACCTC | 0.089
CTTCTCTA | -0.218
ACGCAAGC | 0.129
TCTTCTAA | 0.0169
CATAGTCC | 0.00181
AGAACCAT | 0.0585
TAATTTAA | 0.206
GATCTGCA | -0.0306
AACATATT | 0.164
GGTCATTA | 0.0138
ACGCCGCT | 0.0308

A different layout for some results above.
ATGAATCC
  PBM E-score: 0.16
CTGATGCA
  PBM E-score: 0.103
AATATTCT
  PBM E-score: 0.126
CAGAACTG
  PBM E-score: 0.164
